In the supplement of paper PMC11732987, “Enantioselective OTUD7B fragment discovery through chemoproteomics screening and high-throughput optimisation” (Communications Chemistry, 2025):
Some of the results follow. The data scatter; read single values as rough.

Chains of the proteins cited; added tags and fusions are not shown. Where a name states a change or a piece, a line headed by the entry shows the natural chain unless it says otherwise. A line that says so, or that is headed by a name, gives the form on record, which may keep a tag or linker. Residues count along the entry.
UniProt Q9H0A0: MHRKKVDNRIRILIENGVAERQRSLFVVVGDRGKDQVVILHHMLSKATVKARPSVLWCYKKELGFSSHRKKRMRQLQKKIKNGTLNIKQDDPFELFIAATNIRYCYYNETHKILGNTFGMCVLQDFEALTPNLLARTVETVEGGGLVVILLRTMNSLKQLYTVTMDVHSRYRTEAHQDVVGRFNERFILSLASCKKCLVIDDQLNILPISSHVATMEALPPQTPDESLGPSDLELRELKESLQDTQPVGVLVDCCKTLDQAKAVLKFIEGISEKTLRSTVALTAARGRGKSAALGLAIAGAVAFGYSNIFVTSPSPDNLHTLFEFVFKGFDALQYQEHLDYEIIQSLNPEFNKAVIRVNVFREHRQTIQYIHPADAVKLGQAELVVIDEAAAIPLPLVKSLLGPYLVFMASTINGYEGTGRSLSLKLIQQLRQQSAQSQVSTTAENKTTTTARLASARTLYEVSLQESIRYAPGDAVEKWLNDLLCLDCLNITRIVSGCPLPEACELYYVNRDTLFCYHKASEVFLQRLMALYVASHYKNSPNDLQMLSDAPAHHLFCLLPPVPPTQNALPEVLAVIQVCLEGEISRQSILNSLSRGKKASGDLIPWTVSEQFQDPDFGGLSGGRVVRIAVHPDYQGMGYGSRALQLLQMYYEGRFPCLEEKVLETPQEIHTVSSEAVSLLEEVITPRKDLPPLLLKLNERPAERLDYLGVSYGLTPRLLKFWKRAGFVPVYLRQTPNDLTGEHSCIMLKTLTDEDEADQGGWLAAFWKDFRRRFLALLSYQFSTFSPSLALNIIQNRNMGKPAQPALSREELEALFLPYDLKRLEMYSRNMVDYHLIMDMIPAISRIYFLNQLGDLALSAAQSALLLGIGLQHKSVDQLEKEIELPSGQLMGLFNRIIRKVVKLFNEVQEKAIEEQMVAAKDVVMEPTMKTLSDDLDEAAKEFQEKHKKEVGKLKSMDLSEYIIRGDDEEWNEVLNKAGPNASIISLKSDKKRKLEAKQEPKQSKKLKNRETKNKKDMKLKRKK
UniProt P42695: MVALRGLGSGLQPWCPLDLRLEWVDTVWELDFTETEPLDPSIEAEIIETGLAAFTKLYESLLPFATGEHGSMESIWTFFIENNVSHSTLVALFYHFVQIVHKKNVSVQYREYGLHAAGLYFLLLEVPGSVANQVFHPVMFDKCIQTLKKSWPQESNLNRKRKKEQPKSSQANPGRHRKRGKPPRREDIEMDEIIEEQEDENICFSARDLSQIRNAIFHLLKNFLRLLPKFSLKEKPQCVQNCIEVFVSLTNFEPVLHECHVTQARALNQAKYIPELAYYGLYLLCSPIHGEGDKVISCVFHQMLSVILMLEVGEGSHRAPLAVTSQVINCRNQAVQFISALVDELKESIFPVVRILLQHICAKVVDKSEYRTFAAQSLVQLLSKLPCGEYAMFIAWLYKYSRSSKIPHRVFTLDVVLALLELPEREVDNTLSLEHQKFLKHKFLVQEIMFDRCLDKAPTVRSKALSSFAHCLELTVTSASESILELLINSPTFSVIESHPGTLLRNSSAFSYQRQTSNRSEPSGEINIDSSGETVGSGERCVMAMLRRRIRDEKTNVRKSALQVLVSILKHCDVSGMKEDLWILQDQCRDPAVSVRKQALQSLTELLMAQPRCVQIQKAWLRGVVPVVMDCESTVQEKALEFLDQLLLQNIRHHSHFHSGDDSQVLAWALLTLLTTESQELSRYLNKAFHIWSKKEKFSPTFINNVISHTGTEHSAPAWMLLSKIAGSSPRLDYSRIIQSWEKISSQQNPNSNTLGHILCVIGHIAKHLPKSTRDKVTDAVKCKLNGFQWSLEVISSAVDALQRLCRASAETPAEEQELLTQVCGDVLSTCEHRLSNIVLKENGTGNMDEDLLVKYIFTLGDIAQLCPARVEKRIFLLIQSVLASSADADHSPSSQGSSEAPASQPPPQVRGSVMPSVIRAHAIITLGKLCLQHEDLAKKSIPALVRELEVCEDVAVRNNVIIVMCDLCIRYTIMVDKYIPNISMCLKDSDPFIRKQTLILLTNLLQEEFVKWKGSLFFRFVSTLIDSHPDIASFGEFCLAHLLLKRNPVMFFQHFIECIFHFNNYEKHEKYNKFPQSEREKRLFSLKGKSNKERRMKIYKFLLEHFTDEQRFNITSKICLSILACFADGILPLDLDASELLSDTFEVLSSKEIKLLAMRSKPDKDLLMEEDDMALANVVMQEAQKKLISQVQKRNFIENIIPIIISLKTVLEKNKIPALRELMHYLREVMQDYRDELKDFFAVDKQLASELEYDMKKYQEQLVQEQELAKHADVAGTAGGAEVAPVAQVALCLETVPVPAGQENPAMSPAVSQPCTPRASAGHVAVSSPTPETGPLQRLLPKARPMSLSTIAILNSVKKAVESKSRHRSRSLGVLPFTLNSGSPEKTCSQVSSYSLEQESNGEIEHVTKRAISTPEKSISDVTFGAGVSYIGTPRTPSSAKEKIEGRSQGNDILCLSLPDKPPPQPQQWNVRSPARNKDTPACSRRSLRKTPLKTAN
UniProt Q8NC96, 2-21: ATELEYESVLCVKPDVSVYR
UniProt P21359: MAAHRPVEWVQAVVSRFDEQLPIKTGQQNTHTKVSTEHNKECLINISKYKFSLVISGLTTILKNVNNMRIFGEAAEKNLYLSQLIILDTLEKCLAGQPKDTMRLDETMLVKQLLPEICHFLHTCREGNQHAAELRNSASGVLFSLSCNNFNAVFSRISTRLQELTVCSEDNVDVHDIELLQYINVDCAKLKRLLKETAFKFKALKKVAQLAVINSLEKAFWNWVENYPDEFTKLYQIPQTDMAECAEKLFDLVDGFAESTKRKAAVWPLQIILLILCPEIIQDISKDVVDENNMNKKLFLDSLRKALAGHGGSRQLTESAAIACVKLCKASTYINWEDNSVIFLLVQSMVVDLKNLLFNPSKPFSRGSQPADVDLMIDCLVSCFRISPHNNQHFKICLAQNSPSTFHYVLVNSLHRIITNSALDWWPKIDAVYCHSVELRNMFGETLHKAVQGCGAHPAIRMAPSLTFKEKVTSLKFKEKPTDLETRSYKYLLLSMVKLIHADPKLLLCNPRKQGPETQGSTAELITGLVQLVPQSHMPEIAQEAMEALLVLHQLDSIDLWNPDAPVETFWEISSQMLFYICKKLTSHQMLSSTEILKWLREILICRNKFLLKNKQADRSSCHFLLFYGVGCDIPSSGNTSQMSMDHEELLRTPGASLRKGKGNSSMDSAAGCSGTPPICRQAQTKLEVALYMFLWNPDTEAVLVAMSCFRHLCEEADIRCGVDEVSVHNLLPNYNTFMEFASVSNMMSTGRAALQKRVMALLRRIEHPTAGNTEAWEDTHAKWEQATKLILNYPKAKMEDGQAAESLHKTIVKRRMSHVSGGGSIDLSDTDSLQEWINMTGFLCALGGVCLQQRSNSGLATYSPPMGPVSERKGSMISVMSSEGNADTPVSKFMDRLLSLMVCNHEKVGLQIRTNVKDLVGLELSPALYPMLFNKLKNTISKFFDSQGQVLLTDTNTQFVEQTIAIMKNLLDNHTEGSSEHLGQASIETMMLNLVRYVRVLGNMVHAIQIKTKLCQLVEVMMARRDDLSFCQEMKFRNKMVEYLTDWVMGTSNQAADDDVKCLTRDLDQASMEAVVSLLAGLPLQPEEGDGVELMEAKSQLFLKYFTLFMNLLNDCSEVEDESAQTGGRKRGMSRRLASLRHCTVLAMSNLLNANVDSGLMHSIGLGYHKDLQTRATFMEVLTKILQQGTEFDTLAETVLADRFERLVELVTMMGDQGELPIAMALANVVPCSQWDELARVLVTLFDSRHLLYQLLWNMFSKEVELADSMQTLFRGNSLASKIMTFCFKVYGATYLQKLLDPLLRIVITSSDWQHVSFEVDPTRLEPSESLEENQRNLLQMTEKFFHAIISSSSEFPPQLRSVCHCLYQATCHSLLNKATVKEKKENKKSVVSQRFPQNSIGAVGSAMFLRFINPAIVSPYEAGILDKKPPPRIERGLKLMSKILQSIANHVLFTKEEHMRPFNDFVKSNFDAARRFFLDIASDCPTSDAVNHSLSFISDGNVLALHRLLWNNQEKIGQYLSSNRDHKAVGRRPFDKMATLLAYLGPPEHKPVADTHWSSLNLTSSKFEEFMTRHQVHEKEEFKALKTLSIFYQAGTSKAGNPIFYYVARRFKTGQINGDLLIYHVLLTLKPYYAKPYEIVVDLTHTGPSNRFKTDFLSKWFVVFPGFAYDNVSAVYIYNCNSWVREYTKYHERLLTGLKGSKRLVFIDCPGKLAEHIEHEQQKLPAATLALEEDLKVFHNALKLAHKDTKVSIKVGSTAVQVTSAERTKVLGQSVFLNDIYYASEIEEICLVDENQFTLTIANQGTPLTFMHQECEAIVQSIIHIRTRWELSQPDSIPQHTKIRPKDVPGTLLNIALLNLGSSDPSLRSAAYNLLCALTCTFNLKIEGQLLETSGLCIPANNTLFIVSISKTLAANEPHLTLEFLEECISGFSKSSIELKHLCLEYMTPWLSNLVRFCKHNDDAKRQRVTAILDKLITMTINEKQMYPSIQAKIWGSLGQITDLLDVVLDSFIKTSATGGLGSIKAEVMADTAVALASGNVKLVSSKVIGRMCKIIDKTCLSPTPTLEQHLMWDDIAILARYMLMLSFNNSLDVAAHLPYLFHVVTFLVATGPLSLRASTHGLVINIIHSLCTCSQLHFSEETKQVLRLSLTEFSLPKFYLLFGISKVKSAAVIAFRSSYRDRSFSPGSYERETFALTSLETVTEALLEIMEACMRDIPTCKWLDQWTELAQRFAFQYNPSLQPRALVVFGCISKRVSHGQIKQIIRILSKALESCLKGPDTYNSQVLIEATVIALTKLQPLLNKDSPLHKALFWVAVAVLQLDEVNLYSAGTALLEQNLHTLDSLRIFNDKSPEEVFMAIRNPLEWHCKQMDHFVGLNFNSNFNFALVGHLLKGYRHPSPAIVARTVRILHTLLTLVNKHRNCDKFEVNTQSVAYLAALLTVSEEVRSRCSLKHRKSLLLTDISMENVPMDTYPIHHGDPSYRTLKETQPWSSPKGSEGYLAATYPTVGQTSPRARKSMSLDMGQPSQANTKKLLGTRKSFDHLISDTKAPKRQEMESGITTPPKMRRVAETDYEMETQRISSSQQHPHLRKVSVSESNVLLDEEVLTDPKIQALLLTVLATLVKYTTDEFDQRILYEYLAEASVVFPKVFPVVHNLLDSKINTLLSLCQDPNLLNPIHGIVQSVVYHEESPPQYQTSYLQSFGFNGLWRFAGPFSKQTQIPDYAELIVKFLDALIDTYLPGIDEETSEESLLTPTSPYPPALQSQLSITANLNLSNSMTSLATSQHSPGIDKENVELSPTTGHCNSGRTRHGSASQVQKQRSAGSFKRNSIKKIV
UniProt Q92597, 20-53: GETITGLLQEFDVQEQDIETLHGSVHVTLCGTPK
UniProt O75380: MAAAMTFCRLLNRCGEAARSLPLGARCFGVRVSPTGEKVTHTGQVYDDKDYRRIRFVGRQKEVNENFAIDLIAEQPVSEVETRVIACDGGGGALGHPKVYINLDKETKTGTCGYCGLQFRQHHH
UniProt Q8TD19: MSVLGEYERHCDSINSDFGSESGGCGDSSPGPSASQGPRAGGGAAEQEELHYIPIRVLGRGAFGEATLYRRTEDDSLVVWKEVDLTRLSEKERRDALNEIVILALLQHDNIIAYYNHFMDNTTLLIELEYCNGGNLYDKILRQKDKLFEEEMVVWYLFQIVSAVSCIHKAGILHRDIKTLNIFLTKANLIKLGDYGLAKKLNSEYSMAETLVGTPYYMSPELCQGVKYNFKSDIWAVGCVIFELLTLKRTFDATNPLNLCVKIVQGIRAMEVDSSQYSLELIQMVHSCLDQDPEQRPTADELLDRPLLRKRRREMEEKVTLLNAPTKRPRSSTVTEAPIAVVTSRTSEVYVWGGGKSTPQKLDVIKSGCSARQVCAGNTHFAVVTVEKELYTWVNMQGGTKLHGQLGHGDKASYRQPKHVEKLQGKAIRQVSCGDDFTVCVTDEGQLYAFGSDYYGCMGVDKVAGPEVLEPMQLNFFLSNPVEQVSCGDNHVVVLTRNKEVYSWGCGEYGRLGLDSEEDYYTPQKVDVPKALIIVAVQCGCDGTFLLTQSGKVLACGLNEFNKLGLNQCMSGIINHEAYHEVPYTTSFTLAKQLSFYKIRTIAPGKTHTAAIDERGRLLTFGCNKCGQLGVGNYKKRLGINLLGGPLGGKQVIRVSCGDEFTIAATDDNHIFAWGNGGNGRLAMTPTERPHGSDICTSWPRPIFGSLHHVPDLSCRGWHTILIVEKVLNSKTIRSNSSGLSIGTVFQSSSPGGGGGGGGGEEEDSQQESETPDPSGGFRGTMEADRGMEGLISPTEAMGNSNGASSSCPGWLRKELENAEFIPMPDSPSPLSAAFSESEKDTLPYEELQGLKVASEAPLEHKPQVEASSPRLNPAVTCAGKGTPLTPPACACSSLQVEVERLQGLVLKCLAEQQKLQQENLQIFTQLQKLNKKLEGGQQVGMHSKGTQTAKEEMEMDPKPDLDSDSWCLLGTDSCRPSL
NDRG2_(C255,C255,C274,C274), as listed by the source: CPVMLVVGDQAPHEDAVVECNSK

These targets were tested with ClCC(=O)N[C@H]1CCCc2ccccc12 (assay: log2 mean competition ratio of IA-DTB cysteine labelling (DMSO/compound) (log2 ratio); higher = stronger cysteine engagement by compound). Conditions: 50 µM; treatment time: 4 h; cell line lysate: HEK293T.
Experimental: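 IA-DTB competitive cysteine chemoproteomics in HEK293T RIPA lysate. Lysates were treated with compound 29 or 30 at 50 or 200 µM for 4 h, then IA-DTB (500 µM, 1 h), trypsin-digested, NeutrAvidin-enriched and analysed by diaPASEF. Competition ratio = intensity DMSO / intensity compound (n=4 treated, n=64 DMSO); binding: mean log2 CR ≥ 1 and p ≤ 0.05 plus QC filters. Target is the cysteine site.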

Target	log2 mean competition ratio
NME7 C228 (UniProt Q9Y5B8)	-0.121
NBEA C457 (UniProt Q8NFP9)	-0.706
NAT10 C746 (UniProt Q9H0A0)	-0.112
NKD1 C112	0.00957
NCAPD2 C1249 (UniProt Q15021)	0.152
NFX1 C684 (UniProt Q12986)	-0.106
NLN C199 (UniProt Q9BYT8)	-0.185
NKRF C37 (UniProt O15226)	0.339
NCAPD3 C631 (UniProt P42695)	0.51
NECAP1 C12 (UniProt Q8NC96)	0.169

Same assay, conditions: 200 µM; treatment time: 4 h; cell line lysate: HEK293T

Target	log2 mean competition ratio
NF1 C1032 (UniProt P21359)	0.239
NCAPD3 C1484 (UniProt P42695)	0.366
NDRG1 C49 (UniProt Q92597)	-0.714
NCAPG2 C184 (UniProt Q86XI2)	0.395
NDUFS6 C87 (UniProt O75380)	0.14
NDUFAF4 C87 (UniProt Q9P032)	-0.0449
NCAPD3 C453 (UniProt P42695)	-0.00798
NIPBL C1889 (UniProt Q6KC79)	0.237
NBAS C406 (UniProt A2RRP1)	-0.153
NDUFA10 C183 (UniProt O95299)	0.129
NCAPD3 C330 (UniProt P42695)	0.313
NDRG2_(C255,C255,C274,C274)	0.206
NFXL1 C539 (UniProt Q6ZNB6)	0.0149
NAT10 C517 (UniProt Q9H0A0)	-0.344
NCKIPSD C700 (UniProt Q9NZQ3)	0.0575
NAV2 C1288 (UniProt Q8IVL1)	-0.605
NEK9 C623 (UniProt Q8TD19)	0.426
NDUFA8 C110 (UniProt P51970)	0.409
NECAP1 C162 (UniProt Q8NC96)	-0.189

Target	log2 mean competition ratio
NOL6 C1034 (UniProt Q9H6R4)	0.484
NDUFV1 C142	-0.153
NEFL C322	0.129
NCAPD3 C952 (UniProt P42695)	-0.045
NCOA3 C769 (UniProt Q9Y6Q9)	-0.0982
NDUFA11 C18 (UniProt Q86Y39)	0.425
NCAPH2 C230 (UniProt Q6IBW4)	0.162
NBPF19;NBPF26;NBPF20;NBPF9;NBPF1;NBPF8;NBPF12;NBPF14;NBPF10 C589(C833)(C1077)(C1321)(C1565)(C1809)(C2053)(C2297)(C2541)(C2785)(C3029)(C3273)(C3517)(C3761);(C820);(C245)(C489)(C733)(C977)(C1221)(C1709)(C1953)(C2197)(C2441)(C2685)(C2929)(C3173)(C3417)(C3661)(C3905)(C4393)(C4562)(C4881)(C5125);(C1029);(C1132);(C825);(C1131)(C1375);(C520)(C839);(C860)(C1104)(C1348)(C1592)(C1836)(C2080)(C2324)(C2568)(C2812)(C3056)(C3300)(C3544)(C3713)	-0.0887
NME7 C228 (UniProt Q9Y5B8)	0.218
NBEA C457 (UniProt Q8NFP9)	-0.09
NAT10 C746 (UniProt Q9H0A0)	0.371
NKD1 C112	-0.0405
NCAPD2 C1249 (UniProt Q15021)	0.106
NFX1 C684 (UniProt Q12986)	0.119
NLN C199 (UniProt Q9BYT8)	-0.0394
NKRF C37 (UniProt O15226)	-0.32
NCAPD3 C631 (UniProt P42695)	-0.156
NECAP1 C12 (UniProt Q8NC96)	-0.129
